Measurements published in paper PMC9550257.

Chains of the proteins cited; added tags and fusions are not shown.
UniProt O15205: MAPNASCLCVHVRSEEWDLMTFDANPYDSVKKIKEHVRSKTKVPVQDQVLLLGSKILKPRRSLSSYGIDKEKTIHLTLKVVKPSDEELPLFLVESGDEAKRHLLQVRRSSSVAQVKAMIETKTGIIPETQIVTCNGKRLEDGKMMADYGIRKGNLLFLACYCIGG
UniProt Q93009: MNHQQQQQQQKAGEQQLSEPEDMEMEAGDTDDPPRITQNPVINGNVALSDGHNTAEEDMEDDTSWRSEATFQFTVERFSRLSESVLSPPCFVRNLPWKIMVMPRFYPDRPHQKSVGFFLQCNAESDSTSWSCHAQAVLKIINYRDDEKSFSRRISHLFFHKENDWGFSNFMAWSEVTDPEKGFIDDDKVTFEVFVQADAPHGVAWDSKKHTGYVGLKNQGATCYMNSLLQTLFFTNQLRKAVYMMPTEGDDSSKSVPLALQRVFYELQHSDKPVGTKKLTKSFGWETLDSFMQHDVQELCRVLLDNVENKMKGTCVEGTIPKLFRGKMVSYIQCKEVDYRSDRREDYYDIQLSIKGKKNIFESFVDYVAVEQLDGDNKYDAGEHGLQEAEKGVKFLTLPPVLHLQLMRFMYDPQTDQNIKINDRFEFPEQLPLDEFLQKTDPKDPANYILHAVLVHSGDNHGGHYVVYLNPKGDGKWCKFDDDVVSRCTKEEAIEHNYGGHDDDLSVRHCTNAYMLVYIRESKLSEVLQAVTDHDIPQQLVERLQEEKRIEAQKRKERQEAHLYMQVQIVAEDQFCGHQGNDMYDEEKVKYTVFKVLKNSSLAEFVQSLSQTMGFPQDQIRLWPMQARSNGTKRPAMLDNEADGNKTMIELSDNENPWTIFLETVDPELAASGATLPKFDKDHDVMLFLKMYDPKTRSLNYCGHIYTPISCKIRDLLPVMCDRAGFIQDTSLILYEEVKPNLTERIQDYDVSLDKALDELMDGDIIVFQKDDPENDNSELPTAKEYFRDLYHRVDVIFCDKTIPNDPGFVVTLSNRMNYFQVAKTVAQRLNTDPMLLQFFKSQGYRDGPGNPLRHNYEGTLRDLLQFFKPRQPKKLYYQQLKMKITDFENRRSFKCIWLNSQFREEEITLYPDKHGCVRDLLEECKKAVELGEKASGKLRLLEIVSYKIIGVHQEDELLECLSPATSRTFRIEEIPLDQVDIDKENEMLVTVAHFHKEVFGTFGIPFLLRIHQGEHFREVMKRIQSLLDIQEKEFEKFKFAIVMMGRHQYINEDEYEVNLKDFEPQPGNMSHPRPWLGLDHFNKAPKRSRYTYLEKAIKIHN

Molecular target: FAT10 (bait of the immunoprecipitation-mass spectrometry screen) (UniProt O15205)
Test: affinity purification with mass spectrometry; immunoprecipitation of FAT10, mass spectrometry of associated proteins; cells not told

- binding: binds
Substance: USP7 (found in the FAT10 immunoprecipitation-mass spectrometry screen) (from UniProt Q93009 1-1102) (enzyme)

No constants are given. Whether binding was seen depends on the method and setting. Binding seen in cells or lysates may run through a third protein. Here binding means that the protein was enriched with, or labelled near, the bait; the list need not be complete.
